Source: patent US11230581B2, “Peptides and combination of peptides for use in immunotherapy against ovarian cancer and other cancers” (Immatics Biotechnologies GmbH, priority 2015, dated 2022)

Key:
additional tumor types = experiment: LC-MS detection and over-presentation of the peptides on additional tumor types, cell lines and primary cultures; design: species or system human; details: for Other relevant organs/ cancerous diseases: Table 4A: additional tumor types on which the peptide was found, over-presented on more than 5% of measured tumor samples, or presented on more than 5% with ratio of geometric means tumor vs normal tissues larger than 3; for Additional organs/cancerous diseases: additional tumor types with over-presentation on more than 5% of the measured tumor samples, or presentation on more than 5% with ratio of geometric means tumor vs normal tissues larger than 3
ovarian cancer samples = experiment: Relative LC-MS quantitation of HLA-presented peptides: presentation and over-presentation on ovarian cancer vs a panel of normal tissues (presentation score); design: species or system human; key: +++: very highly over-presented on tumors compared to a panel of normal tissues; ++: highly over-presented on tumors compared to a panel of normal tissues; +: over-presented on tumors compared to a panel of normal tissues; details: over-presentation on tumors compared to a panel of normal tissues

Substance | Other relevant organs/ cancerous diseases (additional tumor types) | Additional organs/cancerous diseases (additional tumor types) | Peptide Presentation (presentation score) (ovarian cancer samples)
513 (SLWPSPEQL; listed as Homo sapiens) [compound 513] | HCC, Esophageal Cancer | Melanoma, AML, NHL, HNSCC | +++
514 (ILVDWLVQV; listed as Homo sapiens) [compound 514] | NSCLC, SCLC, RCC, Brain Cancer, GC, CRC, HCC, Melanoma, Esophageal Cancer, Urinary bladder Cancer, Uterine Cancer | BRCA, Gallbladder Cancer and Bile Duct Cancer, AML, NHL, HNSCC | +++
517 (LLMPIPEGLTL; listed as Homo sapiens) [compound 517] | NSCLC, SCLC, HCC, Melanoma | Urinary Bladder Cancer, Uterine Cancer, HNSCC | +
518 (KLNAEVACV; listed as Homo sapiens) [compound 518] | CRC, PrC, Esophageal Cancer | BRCA, Melanoma, Urinary Bladder Cancer, Uterine Cancer, HNSCC | +++
519 (GLLHLTLLL; listed as Homo sapiens) [compound 519] |  | SCLC, Gallbladder Cancer and Bile Duct Cancer, AML, HNSCC | +++
520 (LAVHPSGVAL; listed as Homo sapiens) [compound 520] | Leukemia | SCLC, CLL, BRCA, Gallbladder Cancer and Bile Duct Cancer | ++
521 (MLLTKLPTI; listed as Homo sapiens) [compound 521] | NSCLC, SCLC, CRC, HCC, BrCa, Melanoma, Urinary bladder Cancer | Brain Cancer, CLL, Uterine Cancer, AML, NHL, HNSCC | ++
522 (TLWYRSPEV; listed as Homo sapiens) [compound 522] | SCLC | Melanoma | +++
523 (YQIPRTFTL; listed as Homo sapiens) [compound 523] | SCLC, Brain Cancer, HCC, Leukemia, Melanoma | CLL, AML | +
525 (VLLEAGEGLVTI; listed as Homo sapiens) [compound 525] | Melanoma | NSCLC, SCLC, CLL, Urinary Bladder Cancer, Uterine Cancer, NHL, HNSCC | +
526 (RLAEVGQYEQV; listed as Homo sapiens) [compound 526] | NSCLC, HCC, MCC, Gallbladder Cancer, Bile Duct Cancer | Uterine Cancer, NHL | +
527 (FLLEPGNLEV; listed as Homo sapiens) [compound 527] | Urinary bladder Cancer |  | +++
528 (SVAEGRALMSV; listed as Homo sapiens) [compound 528] | Brain Cancer, CRC, HCC, Esophageal Cancer | NSCLC, CLL, BRCA, Urinary Bladder Cancer, Gallbladder Cancer and Bile Duct Cancer, HNSCC | +
